# Results: PubChem BioAssay AID504467 (National Center for Advancing Translational Sciences (NCATS), 2011)
# Hit rate of the full screen: of about 330,000 compounds, about 7,700 (2.3%) were called active. This list was built around the results that the source calls inconclusive (neither active nor inactive); the mix of calls is not that of the screen. Calls come from the whole dose curve; as a rule, active = well fitted inhibition curve with a large enough effect; inconclusive = small, poorly fitted or top-dose-only effect, or effect the other way; inactive = flat fitted curve, though single readings scatter. Potencies of inconclusive entries are doubtful fits and often do not repeat.
# Test: qHTS screen for small molecules that inhibit ELG1-dependent DNA repair in human embryonic kidney (HEK293T) cells expressing luciferase-tagged ELG1; note: nearly all actives have a fitted effect of over 55% in size
# Settings: HEK293T ELG1-luciferase reporter, luminescence, 16 h, DNA damage induced by 5-fluorouridine; series mostly up to 46.1 µM
# Procedure, shortened: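 DMSO vehicle served as the neutral condition. Each well held 2,000 cells given 5-fluorouridine plus compound; after 16 hr at 37 °C/5% CO2, ONE-Glo was added and luciferase measured 30 min later.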
# Potency is the fitted concentration of half-maximal effect.
row,SMILES,Potency
1,Cc1cc(F)ccc1NC(=O)Nc1ccc2c(c1)OCO2,"inconclusive: 11.6 µM [activator, partial curve]"
2,CCOC(=O)N1CCC(NC(=O)c2sc(-n3cccc3)nc2C)CC1,inactive
3,COc1cccc(C2=CC(c3cccc(OC)c3OC(F)F)n3nnnc3N2)c1 (stereo not drawn),"inconclusive: 6.51 µM [inhibitor, partial curve, poor fit]"
4,COc1ccc(C(C[N+](=O)[O-])C2(c3ccc(OC)c(OC)c3)C(=O)c3ccccc3C2=O)cc1 (stereo not drawn),"inconclusive: 29.1 µM [inhibitor, single point]"
5,CS(=O)(=O)N(CCc1ccccc1)CC(=O)N1CCCC1,inactive
6,COc1cccc(NC(=O)CSc2nnc3ccc(-c4ccncc4)nn23)c1,"inconclusive: 4.61 µM [inhibitor, single point]"
7,Cc1ccc(-c2nc3ncccc3n2O)cc1,"inconclusive: 18.3 µM [activator, single point]"
8,Cc1ccccc1CN1CCN(c2nc3ccccc3s2)CC1,"inconclusive: 6.51 µM [activator, partial curve]"
9,Cn1cc(/C=C(\NC(=O)c2ccccc2Cl)C(=O)NCCCn2ccnc2)c2ccccc21,inactive
10,O=C(C1CC1)N1CCc2cc(S(=O)(=O)N(CCO)Cc3ccccc3)ccc21,"inconclusive: 20.6 µM [inhibitor, partial curve]"
11,CCOC(=O)c1c(NC(=O)CN2C(=O)C(=O)N(CC(C)C)C2=O)sc(C)c1CC,inactive
12,CCOC(=O)C1CCN(Cc2ccc(OCc3ccccc3)cc2)CC1,inactive
13,Cc1c(CCOC(=O)C23CC4CC(CC(C)(C4)C2)C3)sc[n+]1CC(=O)c1ccccc1,inactive
14,COc1cc(C(=O)NCCOc2ccc(C)c(C)c2)cc(OC)c1OC,"inconclusive: 17.8 µM [inhibitor, partial curve, poor fit]"
15,COc1cccc2cc(C(=O)C3=C(O)C(=O)N(CCN(C)C)C3c3ccc(Cl)cc3)oc12 (stereo not drawn),"inconclusive: 32.6 µM [activator, single point]"
16,O=C(NC1CCC1)C1CCC(=O)N(Cc2ccccc2F)C1 (stereo not drawn),"inconclusive: 29.1 µM [activator, single point]"
17,CCCCN1CN(S(=O)(=O)c2cccs2)c2nc3ccccc3nc21,"inconclusive: 32.6 µM [activator, partial curve, poor fit]"
18,Cc1cccc(/C=C/C(=O)c2cc(Br)ccc(=O)c2O)c1,"inconclusive: 23.1 µM [inhibitor, partial curve]"
19,O=[N+]([O-])c1ccc(S(=O)(=O)Nc2ccc(-c3csc(-c4ccccc4)n3)cc2)cc1,"inconclusive: 0.58 µM [activator, single point]"
20,COc1ccc(Cl)cc1C(=O)NNC(=O)c1nn(C)c(=O)c2ccccc12,"inconclusive: 23.1 µM [inhibitor, single point]"
21,C=CCOC(=O)C(C#N)c1nc2ccccc2nc1N1CCC(C(=O)OCC)CC1 (stereo not drawn),"inconclusive: 18.4 µM [inhibitor, single point]"
22,COc1cc(/C=N/NC(=O)c2ccncc2)ccc1O,"inconclusive: 7.3 µM [inhibitor, single point]"
23,CC1CN(Cc2cn(C)nc2-c2ccc(Oc3ccccc3)cc2)CCN1C (stereo not drawn),inactive

row,SMILES,Potency
1,CCOC(=O)N1CCN(CC(=O)Nc2c(C(=O)OC)[nH]c3cccc(Cl)c23)CC1,"inconclusive: 18.4 µM [inhibitor, partial curve]"
2,Nc1nonc1C(=Nc1ccccc1)NO,inactive
3,O=C(NCCCN1CCCC1=O)C1CCN(S(=O)(=O)c2cccc(C(F)(F)F)c2)CC1,inactive
4,COc1ccc(S(=O)(=O)N2CCN(Cc3cc(=O)n4ccccc4n3)CC2)cc1,"inconclusive: 32.6 µM [inhibitor, single point]"
5,O=C1c2ccccc2C(=O)C1c1ccncc1,"inconclusive: 1.64 µM [activator, full curve]"
6,CCn1c(COc2ccc3c(c2)CCCC3)nnc1SCC(=O)Nc1nccs1,"inconclusive: 18.4 µM [activator, partial curve, poor fit]"
7,Cn1cnnc1Sc1ccc(C(=O)NCCC(c2ccccc2)c2ccccc2)cc1[N+](=O)[O-],"inconclusive: 16.4 µM [inhibitor, partial curve, poor fit]"
8,CCN1CCN(CCCNC(=O)c2cc3c(=O)[nH]c4ccccc4c3s2)CC1,"inconclusive: 20.6 µM [activator, single point]"
9,O=C(N/N=C/c1cc(Br)c(O)c(Br)c1)c1cccc(C(F)(F)F)c1,inactive
10,CCOC(=O)N1CCN(CC(=O)Nc2ccccc2C(=O)Nc2ccccc2)CC1,"inconclusive: 7.3 µM [inhibitor, partial curve]"
11,O=C(COC(=O)C1CC1)NCCc1ccc(Cl)cc1,inactive
12,Oc1ccc(C[C@@H]2CNCCN2CCc2cccc(F)c2)cc1,inactive
13,COc1cc2c(cc1OC)C(C)N(C(=O)c1cc3c(=O)oc4ccc(C)cc4c3s1)CC2 (stereo not drawn),"inconclusive: 23.1 µM [inhibitor, partial curve, poor fit]"
14,CC1CC(C)(C)NC(=S)N1CCCC(=O)Nc1ccc(F)c(F)c1 (stereo not drawn),"inconclusive: 1.03 µM [activator, full curve, poor fit]"
15,COc1ccccc1C(=O)NCC(=O)N/N=C/c1ccc2c(c1)OCO2,"inconclusive: 0.259 µM [inhibitor, single point]"
16,Cc1cc(C)nc(NC(=O)CN2C(=O)c3ccccc3S2(=O)=O)n1,"inconclusive: 11.6 µM [activator, partial curve, poor fit]"
17,COc1cc(/C=N\NC(=O)c2ccc(-c3ccccc3)cc2)cc(OC)c1O,inactive
18,COc1ccc(CNc2oc(COc3ccc(Cl)cc3)nc2C#N)cc1,"inconclusive: 29.1 µM [inhibitor, single point]"
19,Cc1ccccc1C(=O)NC(C)c1ccc2c(c1)CCCC2 (stereo not drawn),"inconclusive: 25.9 µM [inhibitor, partial curve, poor fit]"
20,O=C(N/N=C/C(Cl)=C/c1ccc([N+](=O)[O-])cc1)C(=O)Nc1cccc(C(=O)O)c1,"inconclusive: 16.4 µM [activator, partial curve]"
21,COc1ccccc1/C(C)=N/Oc1cc(N)cc([N+](=O)[O-])c1,"inconclusive: 28.2 µM [activator, single point]"
22,CC(=O)N1CCN(C(=O)c2cccc(S(=O)(=O)NCc3ccccc3)c2)CC1,"inconclusive: 25.9 µM [activator, single point]"
23,N#Cc1cnn2ccc(-c3cc(N4CCOCC4)ccc3[N+](=O)[O-])nc12,"inconclusive: 0.0206 µM [inhibitor, full curve, poor fit]"

# Reformatted tab-delimited: four of the compounds above
row	SMILES	Potency
2	CCOC(=O)N1CCC(NC(=O)c2sc(-n3cccc3)nc2C)CC1	inactive
3	COc1cccc(C2=CC(c3cccc(OC)c3OC(F)F)n3nnnc3N2)c1 (stereo not drawn)	inconclusive: 6.51 µM [inhibitor, partial curve, poor fit]
4	COc1ccc(C(C[N+](=O)[O-])C2(c3ccc(OC)c(OC)c3)C(=O)c3ccccc3C2=O)cc1 (stereo not drawn)	inconclusive: 29.1 µM [inhibitor, single point]
5	CS(=O)(=O)N(CCc1ccccc1)CC(=O)N1CCCC1	inactive

# Ordered by heavy-atom count (falling): part of the list above.
row,SMILES,Potency
19,O=[N+]([O-])c1ccc(S(=O)(=O)Nc2ccc(-c3csc(-c4ccccc4)n3)cc2)cc1,"inconclusive: 0.58 µM [activator, single point]"
4,COc1ccc(S(=O)(=O)N2CCN(Cc3cc(=O)n4ccccc4n3)CC2)cc1,"inconclusive: 32.6 µM [inhibitor, single point]"
18,Cc1cccc(/C=C/C(=O)c2cc(Br)ccc(=O)c2O)c1,"inconclusive: 23.1 µM [inhibitor, partial curve]"

# (list continues)

row,SMILES,Potency
1,NC(=O)c1ccc(N=Nc2c(-c3ccccc3)[nH]n(-c3ccccc3)c2=O)cc1,"inconclusive: 5.17 µM [inhibitor, single point]"
2,NS(=O)(=O)c1cccc(NC(=O)CCC(=O)c2cccs2)c1,"inconclusive: 8.2 µM [activator, partial curve, poor fit]"
3,O=C1C2CC=CCC2C(=O)N1Cc1nnc(-c2ccccc2Br)o1 (stereo not drawn),"inconclusive: 25.9 µM [activator, partial curve]"
4,Cc1cc(C)n2c(Nc3ccc4c(c3)OCCO4)c(-c3ccccc3)nc2n1,"inconclusive: 14.6 µM [activator, partial curve]"
5,COc1ccc(OC)c(CN2CCC(C(=O)N(C)CCc3ccc(OC)c(OC)c3)CC2)c1,"inconclusive: 29.1 µM [inhibitor, single point]"
6,CC(=O)c1cccc(NC(=O)Nc2cccnc2)c1,active: 3.66 µM
7,CCNC(=S)N/N=C(\C)c1ccc2ccccc2c1OC(F)F,"inconclusive: 23.1 µM [inhibitor, single point]"
8,O=C(NCc1ccccc1)C(=O)NCC1COc2ccccc2O1 (stereo not drawn),inactive
9,COc1cccc(CC(=O)Nc2ccc3nc(C)sc3c2)c1,"inconclusive: 20.6 µM [activator, single point]"
10,O=C(CCN1C(=O)S/C(=C\c2ccccc2)C1=O)Nc1ccc(O)cc1C(=O)O,"inconclusive: 29.1 µM [activator, single point]"
11,CC(=O)c1sc(Nc2nc3ccc(F)cc3s2)nc1C,"inconclusive: 10.3 µM [activator, partial curve, poor fit]"
12,CC(=O)c1sc(NC(=O)CN2C(=O)NC3(CCCC3)C2=O)nc1-c1ccccc1,inactive
13,COc1ccc(C(=O)C[n+]2ccc(N)c(C)c2C)cc1,"inconclusive: 18.3 µM [activator, partial curve]"
14,CN(Cc1nc(Cc2cccc(C(F)(F)F)c2)no1)C1CC(C)(C)NC(C)(C)C1,inactive
15,CCN(CC)S(=O)(=O)c1cccc(C(=O)N/N=C/c2ccccn2)c1,inactive
16,O=C1C2CC=CCC2C(=O)N1c1ncn[nH]1 (stereo not drawn),"inconclusive: 23.1 µM [activator, single point]"
17,COc1ccc(CN(C)CC(=O)Nc2cccc(S(=O)(=O)N3CCCC3)c2)cc1F,"inconclusive: 13 µM [inhibitor, single point]"
18,Cc1cccc(-n2cnc(C(=O)Nc3cccnc3)c2)n1,"inconclusive: 5.8 µM [activator, partial curve]"
19,Oc1c(Cl)cc(Cl)c2cccnc12,active: 2.31 µM
20,O=C(NN=C1CCN(Cc2ccccc2)CC1)c1cc2ccccc2cc1O,inactive
21,CCOc1ccccc1N(CC(=O)NC(C)(C)C)C(=O)c1ccc(CN2CCOCC2)o1,inactive
22,O=C(O)c1ccccc1NS(=O)(=O)c1ccc(NNC(=S)Nc2ccc(OC(F)F)cc2)c([N+](=O)[O-])c1,inactive
